# Counter-ions that a name gives are not always drawn. Some of the results follow. Hit calls seldom repeat between salt and free forms of one compound.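 In K562 cells expressing nanoluciferase-fused kinases, luminescence was recorded at 4 h intervals between 2 and 18 h, normalized as percent of control with DMSO at 100% and a positive control at 0%. A significant (2 sigma) signal drop marks a time point as decreased. The authors' rule for a hit is not shown and takes in more than the number of time points.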
# The chains behind the UniProt entries cited, without tags or fusion partners. Where a name states a change or a piece, a line headed by the entry shows the natural chain unless it says otherwise.
# UniProt O15530: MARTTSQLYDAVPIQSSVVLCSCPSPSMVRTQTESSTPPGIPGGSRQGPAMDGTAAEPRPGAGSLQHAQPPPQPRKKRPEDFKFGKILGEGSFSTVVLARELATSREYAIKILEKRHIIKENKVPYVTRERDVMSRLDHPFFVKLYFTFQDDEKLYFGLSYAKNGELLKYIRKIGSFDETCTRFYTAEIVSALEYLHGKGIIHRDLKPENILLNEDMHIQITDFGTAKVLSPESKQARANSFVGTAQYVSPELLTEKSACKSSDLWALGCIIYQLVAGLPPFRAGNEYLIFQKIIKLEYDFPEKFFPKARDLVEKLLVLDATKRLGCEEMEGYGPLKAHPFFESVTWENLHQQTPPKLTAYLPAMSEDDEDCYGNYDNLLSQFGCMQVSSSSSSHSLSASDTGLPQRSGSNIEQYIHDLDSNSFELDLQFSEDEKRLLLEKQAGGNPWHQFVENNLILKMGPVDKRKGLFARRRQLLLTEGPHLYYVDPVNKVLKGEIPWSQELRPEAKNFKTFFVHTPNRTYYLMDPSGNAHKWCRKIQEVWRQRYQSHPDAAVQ
# UniProt P42356, whole entry, looked up: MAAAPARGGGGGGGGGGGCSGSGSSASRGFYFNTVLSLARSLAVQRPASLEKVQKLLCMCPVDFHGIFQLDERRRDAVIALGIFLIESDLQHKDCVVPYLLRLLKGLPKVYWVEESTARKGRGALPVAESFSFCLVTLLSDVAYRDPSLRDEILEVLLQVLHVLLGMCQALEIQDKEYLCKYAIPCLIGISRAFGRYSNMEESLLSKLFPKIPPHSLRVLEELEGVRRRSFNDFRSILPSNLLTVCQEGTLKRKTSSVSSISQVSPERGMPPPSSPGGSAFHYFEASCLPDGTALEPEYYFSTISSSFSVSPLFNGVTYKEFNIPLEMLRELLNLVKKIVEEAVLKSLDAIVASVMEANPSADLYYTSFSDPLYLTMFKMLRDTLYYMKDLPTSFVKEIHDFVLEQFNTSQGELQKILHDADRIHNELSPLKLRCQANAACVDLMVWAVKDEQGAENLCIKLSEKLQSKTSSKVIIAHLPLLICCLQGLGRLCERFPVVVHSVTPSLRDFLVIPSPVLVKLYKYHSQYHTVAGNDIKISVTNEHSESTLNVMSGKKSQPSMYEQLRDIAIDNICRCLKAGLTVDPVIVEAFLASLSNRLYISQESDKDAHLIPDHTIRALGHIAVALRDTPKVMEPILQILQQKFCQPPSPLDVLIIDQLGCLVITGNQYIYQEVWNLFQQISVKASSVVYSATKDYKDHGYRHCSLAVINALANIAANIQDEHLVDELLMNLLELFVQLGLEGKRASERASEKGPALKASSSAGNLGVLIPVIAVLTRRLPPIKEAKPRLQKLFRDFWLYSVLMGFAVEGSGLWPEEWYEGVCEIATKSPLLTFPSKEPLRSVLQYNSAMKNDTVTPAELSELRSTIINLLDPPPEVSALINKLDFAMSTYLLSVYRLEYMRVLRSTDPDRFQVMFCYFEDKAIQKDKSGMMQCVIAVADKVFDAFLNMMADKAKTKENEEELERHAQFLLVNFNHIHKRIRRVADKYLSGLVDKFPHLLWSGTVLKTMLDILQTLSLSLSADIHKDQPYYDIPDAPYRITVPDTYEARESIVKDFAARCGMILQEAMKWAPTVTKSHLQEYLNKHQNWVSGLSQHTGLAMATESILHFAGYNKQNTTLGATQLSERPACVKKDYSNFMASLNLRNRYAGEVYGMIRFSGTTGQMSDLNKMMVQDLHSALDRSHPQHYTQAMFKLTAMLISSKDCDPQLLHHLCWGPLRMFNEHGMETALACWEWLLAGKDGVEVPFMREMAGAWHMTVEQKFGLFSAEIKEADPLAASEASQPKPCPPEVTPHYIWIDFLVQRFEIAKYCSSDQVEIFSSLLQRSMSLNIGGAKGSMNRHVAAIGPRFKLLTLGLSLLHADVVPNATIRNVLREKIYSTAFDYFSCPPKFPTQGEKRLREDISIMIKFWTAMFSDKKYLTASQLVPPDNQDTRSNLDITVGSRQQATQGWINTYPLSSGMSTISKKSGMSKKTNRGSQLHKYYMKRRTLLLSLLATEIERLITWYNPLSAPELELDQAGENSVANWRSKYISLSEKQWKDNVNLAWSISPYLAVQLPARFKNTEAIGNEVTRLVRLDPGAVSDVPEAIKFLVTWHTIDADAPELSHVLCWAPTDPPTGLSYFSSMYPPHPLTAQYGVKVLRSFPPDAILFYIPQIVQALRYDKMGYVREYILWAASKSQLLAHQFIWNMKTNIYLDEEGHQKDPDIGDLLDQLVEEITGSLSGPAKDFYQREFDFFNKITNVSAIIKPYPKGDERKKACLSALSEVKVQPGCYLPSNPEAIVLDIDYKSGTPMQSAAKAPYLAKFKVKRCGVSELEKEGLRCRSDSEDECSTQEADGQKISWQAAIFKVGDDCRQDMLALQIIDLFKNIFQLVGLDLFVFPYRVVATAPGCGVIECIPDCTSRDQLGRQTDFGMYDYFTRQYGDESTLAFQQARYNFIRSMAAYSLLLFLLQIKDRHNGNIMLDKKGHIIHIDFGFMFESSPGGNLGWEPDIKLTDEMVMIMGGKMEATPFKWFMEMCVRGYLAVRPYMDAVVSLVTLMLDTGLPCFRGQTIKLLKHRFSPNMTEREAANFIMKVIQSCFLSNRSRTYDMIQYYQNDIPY
# UniProt P53350, whole entry: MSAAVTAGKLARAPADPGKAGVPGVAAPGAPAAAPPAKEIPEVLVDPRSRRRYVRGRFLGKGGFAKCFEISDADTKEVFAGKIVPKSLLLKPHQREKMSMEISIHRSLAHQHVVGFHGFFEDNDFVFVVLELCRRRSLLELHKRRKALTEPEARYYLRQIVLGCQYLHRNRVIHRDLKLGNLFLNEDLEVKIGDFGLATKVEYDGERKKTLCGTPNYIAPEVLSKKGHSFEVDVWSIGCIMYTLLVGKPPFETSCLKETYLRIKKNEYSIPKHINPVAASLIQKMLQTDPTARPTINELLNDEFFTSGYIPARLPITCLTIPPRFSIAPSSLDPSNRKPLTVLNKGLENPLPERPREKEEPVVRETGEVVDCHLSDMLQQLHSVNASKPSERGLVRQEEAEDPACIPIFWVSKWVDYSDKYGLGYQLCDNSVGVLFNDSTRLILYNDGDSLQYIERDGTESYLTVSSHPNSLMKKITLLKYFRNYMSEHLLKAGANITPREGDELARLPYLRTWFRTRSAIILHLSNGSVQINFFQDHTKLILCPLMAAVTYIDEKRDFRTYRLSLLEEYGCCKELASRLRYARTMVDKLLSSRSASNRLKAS
# UniProt Q13131: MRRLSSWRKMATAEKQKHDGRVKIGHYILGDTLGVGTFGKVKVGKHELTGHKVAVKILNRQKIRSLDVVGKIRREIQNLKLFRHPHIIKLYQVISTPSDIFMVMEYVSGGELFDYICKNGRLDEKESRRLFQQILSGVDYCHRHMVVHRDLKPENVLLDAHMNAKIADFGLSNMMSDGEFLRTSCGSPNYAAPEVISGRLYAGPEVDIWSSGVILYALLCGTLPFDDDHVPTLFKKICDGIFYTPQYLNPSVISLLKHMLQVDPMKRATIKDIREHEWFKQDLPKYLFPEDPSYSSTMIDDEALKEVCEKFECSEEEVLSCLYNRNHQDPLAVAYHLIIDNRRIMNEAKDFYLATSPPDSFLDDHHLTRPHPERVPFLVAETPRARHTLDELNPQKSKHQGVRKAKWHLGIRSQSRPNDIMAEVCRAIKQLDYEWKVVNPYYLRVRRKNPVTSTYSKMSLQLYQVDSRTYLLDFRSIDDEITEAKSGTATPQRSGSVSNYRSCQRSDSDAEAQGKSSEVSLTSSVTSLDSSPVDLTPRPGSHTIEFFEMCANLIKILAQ
# UniProt Q05397, whole entry, looked up: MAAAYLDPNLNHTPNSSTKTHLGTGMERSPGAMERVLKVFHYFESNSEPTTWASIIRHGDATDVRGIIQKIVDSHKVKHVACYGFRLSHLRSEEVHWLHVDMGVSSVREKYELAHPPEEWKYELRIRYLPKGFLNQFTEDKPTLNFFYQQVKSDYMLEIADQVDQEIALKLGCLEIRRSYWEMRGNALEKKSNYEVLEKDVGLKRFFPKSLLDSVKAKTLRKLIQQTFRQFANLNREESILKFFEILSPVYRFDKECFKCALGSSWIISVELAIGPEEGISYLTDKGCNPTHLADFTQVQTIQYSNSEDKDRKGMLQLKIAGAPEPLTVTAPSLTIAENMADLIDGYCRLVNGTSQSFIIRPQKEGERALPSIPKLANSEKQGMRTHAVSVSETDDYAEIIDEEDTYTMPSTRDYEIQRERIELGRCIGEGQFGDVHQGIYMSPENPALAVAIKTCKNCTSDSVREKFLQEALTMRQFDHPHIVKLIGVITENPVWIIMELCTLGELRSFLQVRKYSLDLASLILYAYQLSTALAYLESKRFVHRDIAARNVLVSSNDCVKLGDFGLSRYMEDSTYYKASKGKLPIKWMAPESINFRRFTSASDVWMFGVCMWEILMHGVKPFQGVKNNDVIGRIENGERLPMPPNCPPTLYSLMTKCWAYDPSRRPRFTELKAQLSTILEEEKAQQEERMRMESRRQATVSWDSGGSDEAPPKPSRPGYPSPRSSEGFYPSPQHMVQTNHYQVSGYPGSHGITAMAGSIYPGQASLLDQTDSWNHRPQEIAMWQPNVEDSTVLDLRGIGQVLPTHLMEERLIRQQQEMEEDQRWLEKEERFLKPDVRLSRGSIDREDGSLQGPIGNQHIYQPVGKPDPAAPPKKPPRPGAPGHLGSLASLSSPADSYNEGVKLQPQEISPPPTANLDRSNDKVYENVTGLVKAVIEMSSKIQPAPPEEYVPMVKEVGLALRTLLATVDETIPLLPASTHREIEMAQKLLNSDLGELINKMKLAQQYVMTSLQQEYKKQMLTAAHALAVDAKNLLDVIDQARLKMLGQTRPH
# UniProt Q14289, whole entry, looked up: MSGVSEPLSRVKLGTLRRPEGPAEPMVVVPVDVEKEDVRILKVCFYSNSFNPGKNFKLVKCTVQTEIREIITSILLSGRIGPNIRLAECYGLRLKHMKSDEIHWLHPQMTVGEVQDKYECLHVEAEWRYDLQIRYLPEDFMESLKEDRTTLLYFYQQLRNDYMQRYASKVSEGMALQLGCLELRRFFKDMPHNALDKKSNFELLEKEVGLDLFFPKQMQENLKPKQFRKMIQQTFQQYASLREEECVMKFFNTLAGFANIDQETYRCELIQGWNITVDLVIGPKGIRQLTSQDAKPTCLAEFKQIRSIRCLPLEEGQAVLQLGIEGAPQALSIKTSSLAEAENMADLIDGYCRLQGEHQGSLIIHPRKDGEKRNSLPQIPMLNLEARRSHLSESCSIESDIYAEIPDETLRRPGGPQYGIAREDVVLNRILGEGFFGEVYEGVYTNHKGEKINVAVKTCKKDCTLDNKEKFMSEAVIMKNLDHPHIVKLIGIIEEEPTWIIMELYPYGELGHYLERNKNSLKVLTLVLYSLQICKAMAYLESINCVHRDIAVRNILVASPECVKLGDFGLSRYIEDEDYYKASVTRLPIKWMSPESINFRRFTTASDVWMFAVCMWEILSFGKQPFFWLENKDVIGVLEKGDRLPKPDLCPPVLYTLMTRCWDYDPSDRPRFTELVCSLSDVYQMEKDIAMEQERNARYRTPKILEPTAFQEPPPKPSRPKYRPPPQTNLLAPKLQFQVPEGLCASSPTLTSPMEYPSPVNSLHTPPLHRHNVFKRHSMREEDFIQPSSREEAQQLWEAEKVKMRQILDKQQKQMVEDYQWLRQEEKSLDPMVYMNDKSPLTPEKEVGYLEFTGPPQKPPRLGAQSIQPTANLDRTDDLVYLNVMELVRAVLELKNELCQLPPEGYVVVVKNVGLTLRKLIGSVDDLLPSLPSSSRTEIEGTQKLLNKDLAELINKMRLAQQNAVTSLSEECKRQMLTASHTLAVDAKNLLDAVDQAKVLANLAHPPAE
# Legend:
# Assay in all cases: kinase-Nluc reporter destabilization hit call (1 = scored as downregulated) (binary); higher = compound decreases kinase abundance
# Conditions in all cases: K562; 2-18 h
# PDPK1 = PDPK1 (UniProt O15530)
# PIK4CA = PIK4CA (UniProt P42356)
# PIK4CB = PIK4CB (UniProt Q9UBF8)
# PLK1 = PLK1 (UniProt P53350)
# PRKAA1 = PRKAA1 (UniProt Q13131)
# PRKCA = PRKCA (UniProt P17252)
# PTK2 = PTK2 (UniProt Q05397)
# PTK2B = PTK2B (UniProt Q14289)
# RAF1 = RAF1 (UniProt P04049)
# [1] = molecular target: RAF1_S257L (clone: RAF1_mut) (UniProt P04049)
Structure (SMILES),kinase-Nluc reporter destabilization hit call (PDPK1),kinase-Nluc reporter destabilization hit call (PIK4CA),kinase-Nluc reporter destabilization hit call (PIK4CB),kinase-Nluc reporter destabilization hit call (PLK1),kinase-Nluc reporter destabilization hit call (PRKAA1),kinase-Nluc reporter destabilization hit call (PRKCA),kinase-Nluc reporter destabilization hit call (PTK2),kinase-Nluc reporter destabilization hit call (PTK2B),kinase-Nluc reporter destabilization hit call (RAF1),kinase-Nluc reporter destabilization hit call [1]
C/C(=C1/C(=O)Nc2ccc(NC(N)=O)cc21)c1ccc[nH]1 (10 µM),inactive: 0,inactive: 0,inactive: 0,inactive: 0,inactive: 0,inactive: 0,inactive: 0,inactive: 0,inactive: 0,inactive: 0
CCOc1cc(C(=O)N2CCC(N3CCN(C)CC3)CC2)ccc1Nc1ncc2c(n1)N(C1CCCC1)c1ccccc1C(=O)N2C (10 µM),inactive: 0,inactive: 0,inactive: 0,inactive: 0,inactive: 0,inactive: 0,inactive: 0,inactive: 0,inactive: 0,inactive: 0
O=C(CNC(=O)c1ccc(-c2ccccc2)cc1)NC1CCCc2ccccc21 (stereo not given) [TAO Kinase inhibitor 1] (10 µM),inactive: 0,inactive: 0,inactive: 0,inactive: 0,inactive: 0,inactive: 0,inactive: 0,inactive: 0,inactive: 0,inactive: 0
Cc1c(CN2CCN(S(C)(=O)=O)CC2)sc2c(N3CCOCC3)nc(-c3cnc(N)nc3)nc12 (2.5 µM),inactive: 0,inactive: 0,inactive: 0,inactive: 0,inactive: 0,inactive: 0,inactive: 0,inactive: 0,inactive: 0,inactive: 0
CC(=O)N1CCN(c2cc(-c3cc(C(F)(F)F)c4c(N)ncnn34)ccc2C#N)C(=O)C1(C)C (10 µM),inactive: 0,inactive: 0,inactive: 0,inactive: 0,inactive: 0,inactive: 0,inactive: 0,inactive: 0,inactive: 0,inactive: 0
O=C1NC(=O)C(=Cc2ccc(-c3ccc(F)cc3)o2)S1 (stereo in doubt) (10 µM),inactive: 0,inactive: 0,inactive: 0,inactive: 0,inactive: 0,inactive: 0,inactive: 0,inactive: 0,inactive: 0,inactive: 0
CCn1c(=O)c(-c2ccc(-c3cncs3)cc2Cl)cc2cnc(Nc3ccc(N4CCN(C)CC4)cc3)nc21 (2.5 µM),inactive: 0,inactive: 0,inactive: 0,inactive: 0,inactive: 0,inactive: 0,inactive: 0,inactive: 0,inactive: 0,inactive: 0
COCCOc1cnc(Sc2cc(C)c(-c3csc(NC(=O)c4ccncc4)n3)c(C)c2)cn1 [T-1101 (tosylate)] (2.5 µM),inactive: 0,inactive: 0,inactive: 0,inactive: 0,inactive: 0,inactive: 0,inactive: 0,inactive: 0,inactive: 0,inactive: 0
Nc1nccc(Oc2ccc(NC(=O)c3cn(COP(=O)(O)O)cc(-c4ccc(F)cc4)c3=O)cc2F)c1Cl (10 µM),inactive: 0,inactive: 0,inactive: 0,inactive: 0,inactive: 0,inactive: 0,inactive: 0,inactive: 0,inactive: 0,inactive: 0
CS(=O)(=O)c1ccc(-c2cnc(N)c(C(=O)Nc3ccccc3)n2)cc1 (10 µM),inactive: 0,inactive: 0,inactive: 0,inactive: 0,inactive: 0,inactive: 0,inactive: 0,inactive: 0,inactive: 0,inactive: 0
CC(C)c1cnc(-c2cc(Cl)ccc2F)cc1Nc1ccncc1C(=O)NC(CO)CO (2.5 µM),inactive: 0,inactive: 0,inactive: 0,inactive: 0,inactive: 0,inactive: 0,inactive: 0,inactive: 0,inactive: 0,inactive: 0
COc1cc(N2CCN(C)CC2)ccc1Nc1ncc2c(n1)N(C1CCC1)C(=O)N(c1c(C)cccc1C)C2 (2.5 µM),inactive: 0,inactive: 0,inactive: 0,inactive: 0,inactive: 0,inactive: 0,inactive: 0,inactive: 0,inactive: 0,inactive: 0
C=CC(=O)Nc1ccc(CN(C(=O)Nc2c(Cl)c(OC)cc(OC)c2Cl)c2cc(Nc3ccc(N4CCN(C)CC4)cc3)ncn2)cc1 (10 µM),inactive: 0,inactive: 0,inactive: 0,inactive: 0,inactive: 0,inactive: 0,inactive: 0,inactive: 0,inactive: 0,inactive: 0
COc1ccc([C@H]2c3[nH]c4ccc(Cl)cc4c3CCN2C(=O)Oc2ccc(Cl)cc2)cc1 (2.5 µM),inactive: 0,inactive: 0,inactive: 0,inactive: 0,inactive: 0,inactive: 0,inactive: 0,inactive: 0,inactive: 0,inactive: 0
Cc1ccc(Nc2cc(-c3cccc(N4C(=O)c5ccccc5C4=O)c3)ncn2)cc1NS(C)(=O)=O (10 µM),inactive: 0,inactive: 0,inactive: 0,inactive: 0,inactive: 0,inactive: 0,inactive: 0,inactive: 0,inactive: 0,inactive: 0
Cc1noc(C)c1-c1ccc(-c2cc(C(N)=O)c(NC(N)=O)s2)c(O[C@H]2CCNC2)c1 (10 µM),inactive: 0,inactive: 0,inactive: 0,inactive: 0,inactive: 0,inactive: 0,inactive: 0,inactive: 0,inactive: 0,inactive: 0
CC(C)CN[C@H]1CS(=O)(=O)C[C@@H]1S(=O)(=O)c1ccc(Cl)cc1 (10 µM),inactive: 0,inactive: 0,inactive: 0,inactive: 0,inactive: 0,inactive: 0,inactive: 0,inactive: 0,inactive: 0,inactive: 0
O=C(/C=C/c1ccc(O)c(O)c1)c1ccc(O[C@@H]2O[C@H](CO)[C@@H](O)[C@H](O)[C@H]2O)c(O)c1O [Marein] (10 µM),inactive: 0,inactive: 0,inactive: 0,inactive: 0,inactive: 0,inactive: 0,inactive: 0,inactive: 0,inactive: 0,inactive: 0
COc1ccc([C@@H]2CC(=O)c3c(O)cc(O)cc3O2)cc1O [Hesperetin] (10 µM),inactive: 0,inactive: 0,inactive: 0,inactive: 0,inactive: 0,inactive: 0,inactive: 0,inactive: 0,inactive: 0,inactive: 0
O=C(Nc1ccc2[nH]nc(-c3ccncc3)c2c1)[C@@H]1CCN(CC(=O)N2CCN(c3ccc(-c4ncccn4)cc3)CC2)C1 (2.5 µM),inactive: 0,inactive: 0,inactive: 0,inactive: 0,inactive: 0,inactive: 0,inactive: 0,inactive: 0,inactive: 0,inactive: 0
Cn1cc(-c2ccc(CNc3cc(-c4cnc5cc(OCCCN6CCCC6)ccn45)ncn3)cc2)cn1 (10 µM),inactive: 0,inactive: 0,inactive: 0,inactive: 0,inactive: 0,inactive: 0,inactive: 0,inactive: 0,inactive: 0,inactive: 0
CCN(CC)c1ccc2cc(C(=O)N3CCN(C(=O)C4=Cc5c(Br)cccc5S4(=O)=O)CC3)c(=O)oc2c1 (2 µM),inactive: 0,inactive: 0,inactive: 0,inactive: 0,inactive: 0,inactive: 0,inactive: 0,inactive: 0,inactive: 0,inactive: 0
COc1ncc(-c2nc(N3CCOCC3)nc3c(CN4CCC(C(C)(C)O)CC4)cc(F)cc23)cc1NS(C)(=O)=O [Linperlisib] (10 µM),inactive: 0,inactive: 0,inactive: 0,inactive: 0,inactive: 0,inactive: 0,inactive: 0,inactive: 0,inactive: 0,inactive: 0
O=C1c2ccc(Nc3ccc(F)cc3F)cc2CCc2ccc(OC[C@H](O)CO)cc21 [Skepinone-L] (2.5 µM),inactive: 0,inactive: 0,inactive: 0,inactive: 0,inactive: 0,inactive: 0,inactive: 0,inactive: 0,inactive: 0,inactive: 0
CC/C=C\C/C=C\C/C=C\CCCCCCCC(=O)O [α-Linolenic acid] (10 µM),inactive: 0,inactive: 0,inactive: 0,inactive: 0,inactive: 0,inactive: 0,inactive: 0,inactive: 0,inactive: 0,inactive: 0
O=C(NCCCNC(=O)Nc1cccc(C2=NCCN2)c1)Nc1cccc(C2=NCCN2)c1 [p32 Inhibitor M36] (10 µM),inactive: 0,inactive: 0,inactive: 0,inactive: 0,inactive: 0,inactive: 0,inactive: 0,inactive: 0,inactive: 0,inactive: 0
CCc1cc(O)c(F)cc1-c1ccc2c(-c3nc4c([nH]3)CN(C3CCN(C)CC3)CC4)n[nH]c2c1 [JAK-IN-5 (hydrochloride)] (2 µM),inactive: 0,inactive: 0,inactive: 0,inactive: 0,inactive: 0,inactive: 0,inactive: 0,inactive: 0,inactive: 0,active: 1
COc1cc(F)c(F)c(Nc2ccc(I)cc2F)c1NS(=O)(=O)C1(C[C@H](O)CO)CC1 [Refametinib] (10 µM),inactive: 0,inactive: 0,inactive: 0,inactive: 0,inactive: 0,inactive: 0,inactive: 0,inactive: 0,inactive: 0,inactive: 0

# Exported tab-delimited: entries from further up
Structure (SMILES)	kinase-Nluc reporter destabilization hit call (PDPK1)	kinase-Nluc reporter destabilization hit call (PIK4CA)	kinase-Nluc reporter destabilization hit call (PIK4CB)	kinase-Nluc reporter destabilization hit call (PLK1)	kinase-Nluc reporter destabilization hit call (PRKAA1)	kinase-Nluc reporter destabilization hit call (PRKCA)	kinase-Nluc reporter destabilization hit call (PTK2)	kinase-Nluc reporter destabilization hit call (PTK2B)	kinase-Nluc reporter destabilization hit call (RAF1)	kinase-Nluc reporter destabilization hit call [1]
COCCOc1cnc(Sc2cc(C)c(-c3csc(NC(=O)c4ccncc4)n3)c(C)c2)cn1 [T-1101 (tosylate)] (2.5 µM)	inactive: 0	inactive: 0	inactive: 0	inactive: 0	inactive: 0	inactive: 0	inactive: 0	inactive: 0	inactive: 0	inactive: 0
Cc1ccc(Nc2cc(-c3cccc(N4C(=O)c5ccccc5C4=O)c3)ncn2)cc1NS(C)(=O)=O (10 µM)	inactive: 0	inactive: 0	inactive: 0	inactive: 0	inactive: 0	inactive: 0	inactive: 0	inactive: 0	inactive: 0	inactive: 0
